Experimental data taken from publication PMC3033906.
No constants are given. Whether binding was seen depends on the method and setting. Binding seen in cells or lysates may run through a third protein. Some results given as binding are weak or reduced against the parent protein; the word gives no strength. One block for each substance: values may come before it.

Chains of the proteins cited; added tags and fusions are not shown.
UniProt Q8C863: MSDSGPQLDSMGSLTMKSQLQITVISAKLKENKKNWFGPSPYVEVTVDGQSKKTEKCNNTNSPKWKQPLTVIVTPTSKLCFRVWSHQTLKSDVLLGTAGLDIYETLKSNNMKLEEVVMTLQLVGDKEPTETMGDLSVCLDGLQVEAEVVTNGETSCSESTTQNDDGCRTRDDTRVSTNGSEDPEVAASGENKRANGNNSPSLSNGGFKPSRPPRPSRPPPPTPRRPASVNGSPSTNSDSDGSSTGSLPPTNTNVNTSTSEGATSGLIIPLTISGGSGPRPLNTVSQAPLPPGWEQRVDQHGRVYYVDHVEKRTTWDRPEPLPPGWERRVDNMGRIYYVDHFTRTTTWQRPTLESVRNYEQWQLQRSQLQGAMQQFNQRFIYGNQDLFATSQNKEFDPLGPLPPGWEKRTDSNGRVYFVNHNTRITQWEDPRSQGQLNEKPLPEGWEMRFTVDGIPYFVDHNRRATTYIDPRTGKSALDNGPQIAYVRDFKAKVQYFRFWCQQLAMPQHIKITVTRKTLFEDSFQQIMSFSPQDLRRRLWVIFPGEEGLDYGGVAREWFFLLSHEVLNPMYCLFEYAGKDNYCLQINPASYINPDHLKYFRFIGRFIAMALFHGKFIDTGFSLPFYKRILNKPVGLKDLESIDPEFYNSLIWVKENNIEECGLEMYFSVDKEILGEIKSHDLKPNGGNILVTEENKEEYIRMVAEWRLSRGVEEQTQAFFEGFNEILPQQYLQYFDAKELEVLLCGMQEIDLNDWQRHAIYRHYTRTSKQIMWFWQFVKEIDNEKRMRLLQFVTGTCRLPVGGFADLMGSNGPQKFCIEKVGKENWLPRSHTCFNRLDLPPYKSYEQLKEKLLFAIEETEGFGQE
UniProt Q9JLJ0: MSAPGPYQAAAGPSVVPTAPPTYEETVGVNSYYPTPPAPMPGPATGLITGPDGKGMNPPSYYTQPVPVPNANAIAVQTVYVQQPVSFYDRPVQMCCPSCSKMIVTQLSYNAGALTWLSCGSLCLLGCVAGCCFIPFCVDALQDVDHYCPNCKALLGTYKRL

How the values were obtained:
rLuc-Itch = rLuc-Itch (UniProt Q8C863); test: FRET or BRET; BRET in living HEK-293T cells co-transfected with a constant amount of rLuc-Itch and various amounts of GFP fusion; coelenterazine 5 µM; saturation curves
FLAG-Itch (WT) = FLAG-Itch (WT) (UniProt Q8C863); test: co-IP; HEK-293T co-transfected; extract in 20 mM Hepes pH 7.4, 150 mM NaCl, 1% Triton X-100; anti-FLAG with protein A-Sepharose, 16 hours at 4°C; blot with anti-myc
GST-Itch WT = GST-Itch WT (UniProt Q8C863); test: pull-down; 20 µg GST-fusion protein on glutathione Sepharose 4B incubated with extracts of transfected HEK-293T cells, 16 hours at 4°C, 20 mM Hepes pH 7.4, 150 mM NaCl, 1% Triton X-100; blot with anti-myc or anti-GFP; densitometry of four experiments for GST-Itch-WW; only the target purified
GFP-Itch = GFP-Itch (UniProt Q8C863); test: FRET or BRET; BRET with rLuc-LITAF and GFP-Itch; data not shown

binding (rLuc-Itch): binds
Substance: GFP-LITAF WT (from UniProt Q9JLJ0 1-161)

binding (FLAG-Itch (WT)): binds
binding (GST-Itch WT): binds
Substance: myc-LITAF (wild-type) (from UniProt Q9JLJ0 1-161)

binding (GFP-Itch): binds
Substance: rLuc-LITAF (from UniProt Q9JLJ0 1-161)
